Measured values published in doi:10.1101/2022.01.05.475133 (bioRxiv, 2022).

Protein sequences, listed by entry. Tags and fused reporters are not part of them. Lines headed by an entry give the natural chain unless they say otherwise; changes in a name come on top.
UniProt O75762: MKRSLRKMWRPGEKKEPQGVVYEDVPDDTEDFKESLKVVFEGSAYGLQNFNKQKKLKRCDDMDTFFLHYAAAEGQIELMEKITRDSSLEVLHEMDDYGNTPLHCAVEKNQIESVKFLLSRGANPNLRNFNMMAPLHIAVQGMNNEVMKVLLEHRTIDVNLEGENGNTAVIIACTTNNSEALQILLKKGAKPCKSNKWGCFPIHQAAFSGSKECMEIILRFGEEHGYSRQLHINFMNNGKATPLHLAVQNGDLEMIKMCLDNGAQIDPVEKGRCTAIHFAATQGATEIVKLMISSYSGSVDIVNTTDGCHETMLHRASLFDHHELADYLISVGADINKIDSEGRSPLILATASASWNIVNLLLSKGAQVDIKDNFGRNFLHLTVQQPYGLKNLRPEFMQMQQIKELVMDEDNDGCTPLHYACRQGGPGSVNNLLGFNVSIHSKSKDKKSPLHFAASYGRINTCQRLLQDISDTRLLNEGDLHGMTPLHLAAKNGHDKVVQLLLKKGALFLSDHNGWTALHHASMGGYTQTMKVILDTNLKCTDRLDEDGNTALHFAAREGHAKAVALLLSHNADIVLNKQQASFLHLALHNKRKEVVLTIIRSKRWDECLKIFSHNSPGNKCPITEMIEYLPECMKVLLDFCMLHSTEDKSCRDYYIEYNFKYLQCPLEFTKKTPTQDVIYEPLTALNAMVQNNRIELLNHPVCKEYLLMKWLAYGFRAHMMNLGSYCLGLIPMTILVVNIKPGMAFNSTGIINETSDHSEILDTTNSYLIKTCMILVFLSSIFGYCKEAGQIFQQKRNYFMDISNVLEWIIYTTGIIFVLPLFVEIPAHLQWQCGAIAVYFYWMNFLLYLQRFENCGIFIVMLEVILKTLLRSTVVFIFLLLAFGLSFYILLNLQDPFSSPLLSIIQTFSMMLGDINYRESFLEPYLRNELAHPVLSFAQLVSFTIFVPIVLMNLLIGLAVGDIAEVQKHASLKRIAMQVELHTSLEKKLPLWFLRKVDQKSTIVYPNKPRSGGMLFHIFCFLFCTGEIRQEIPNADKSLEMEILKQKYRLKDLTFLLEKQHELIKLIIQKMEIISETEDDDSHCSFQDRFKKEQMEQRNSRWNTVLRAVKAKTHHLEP

Experiments:
Test in all cases: co-IP
[1] = target: 3xFLAG-hTRPA1 C-terminal truncation Δ1011 (human) (UniProt O75762)
[2] = target: 3xFLAG-hTRPA1 C-terminal truncation Δ934 (human) (UniProt O75762)
[3] = target: 3xFLAG-hTRPA1 C-terminal truncation Δ969 (human) (UniProt O75762)

Measured: binding

MBP-tagged WT human TRPA1 (from UniProt O75762 1-1119)
binds: [1] | [2] | [3]

Results are given in words; binding and its absence hold for the method and conditions named. Binding seen in cells or lysates may run through a third protein. Binding can be weak; no strength is given.
